Earlier results in patent publication US4168274A, “Production of a peracid and an oxirane” (priority 1975, dated 1979).
At least one read-out could not be matched to a standard name with certainty.

Settings: Table I, carboxylic acids

## O=C(O)CCCl [β-chlorpropionic]
  pK × 10^5: 10
